From publication PMC6932907 come the findings set out here.

The target in experiment [1] is T1, Ninjurin2 (human (endogenous in A172 cells, primary human glioma cells and human glioma tissue)) (UniProt Q9NZG7).
T1 sequence: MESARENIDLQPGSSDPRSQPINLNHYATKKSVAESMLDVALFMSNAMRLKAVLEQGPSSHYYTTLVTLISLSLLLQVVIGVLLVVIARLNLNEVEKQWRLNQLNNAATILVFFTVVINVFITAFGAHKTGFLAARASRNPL
Briefly: co-IP; 1000 μg total cellular lysates of A172 and primary human glioma cells (P1/P2), pre-cleared with beads; endogenous Ninj2 captured by an anti-Ninj2 antibody overnight, then beads 6-8h; Ninj2-immunoprecipitated proteins tested by Western blotting. In general terms: In western blotting, separated proteins are transferred to a membrane and probed.

Experiment [2] addresses T1, Ninjurin2 (human (endogenous in A172 cells, primary human glioma cells and human glioma tissue)). Nature of the experiment: co-IP; fresh human glioma tissue lysates from three patients (T1/2/3), same Co-IP assay (anti-Ninj2 capture, Western blotting).

Results are given in words; binding and its absence hold for the method and conditions named. In cells and extracts the contact can be indirect. A result given as binding can be weak or reduced; the word gives no strength.

Turning to fibroblast growth factor receptor, the binding entry in experiment [1] and in experiment [2] was “binds” each time.
